Test results published in PubChem BioAssay (EPA / NIEHS).
All entries are inconclusive by the source's own rule. Clear calls are listed elsewhere. Rule for the calls: active = hit-call score of the fitted dose curve at least 0.9, where 1 is the maximum; inconclusive = response in the unintended direction; inactive = score below 0.9.

Amino acid sequences for entries named in this document (tags omitted).
UniProt Q14994, whole entry: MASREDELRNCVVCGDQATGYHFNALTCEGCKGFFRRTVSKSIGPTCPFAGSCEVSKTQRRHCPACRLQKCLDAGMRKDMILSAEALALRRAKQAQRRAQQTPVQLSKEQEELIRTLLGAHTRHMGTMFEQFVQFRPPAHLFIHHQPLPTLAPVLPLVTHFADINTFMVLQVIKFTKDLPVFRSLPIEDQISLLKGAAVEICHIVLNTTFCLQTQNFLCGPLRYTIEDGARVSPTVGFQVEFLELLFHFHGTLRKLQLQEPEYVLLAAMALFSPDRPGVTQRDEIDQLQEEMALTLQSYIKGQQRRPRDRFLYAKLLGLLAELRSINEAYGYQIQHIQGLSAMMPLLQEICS
UniProt P04150, whole entry: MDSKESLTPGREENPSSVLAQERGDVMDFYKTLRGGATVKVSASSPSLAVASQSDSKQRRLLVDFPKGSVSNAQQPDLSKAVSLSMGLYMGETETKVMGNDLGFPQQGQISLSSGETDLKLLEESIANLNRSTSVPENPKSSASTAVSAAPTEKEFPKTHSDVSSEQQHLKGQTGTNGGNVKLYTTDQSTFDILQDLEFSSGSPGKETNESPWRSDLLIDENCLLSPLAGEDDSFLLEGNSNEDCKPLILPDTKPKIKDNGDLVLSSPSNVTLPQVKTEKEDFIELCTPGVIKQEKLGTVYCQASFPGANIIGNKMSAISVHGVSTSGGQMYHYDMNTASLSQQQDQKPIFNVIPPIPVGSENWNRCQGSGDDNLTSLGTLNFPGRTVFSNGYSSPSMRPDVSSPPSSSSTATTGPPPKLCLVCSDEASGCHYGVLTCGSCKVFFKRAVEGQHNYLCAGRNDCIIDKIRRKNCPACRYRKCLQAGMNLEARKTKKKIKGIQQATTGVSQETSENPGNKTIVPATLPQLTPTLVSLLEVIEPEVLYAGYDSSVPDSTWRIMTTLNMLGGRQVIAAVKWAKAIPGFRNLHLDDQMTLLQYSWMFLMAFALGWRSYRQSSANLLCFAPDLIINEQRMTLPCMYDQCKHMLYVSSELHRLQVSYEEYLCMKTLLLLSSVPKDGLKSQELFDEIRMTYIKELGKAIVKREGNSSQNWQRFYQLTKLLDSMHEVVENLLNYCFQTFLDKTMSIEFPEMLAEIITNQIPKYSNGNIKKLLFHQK
UniProt Q13133, whole entry: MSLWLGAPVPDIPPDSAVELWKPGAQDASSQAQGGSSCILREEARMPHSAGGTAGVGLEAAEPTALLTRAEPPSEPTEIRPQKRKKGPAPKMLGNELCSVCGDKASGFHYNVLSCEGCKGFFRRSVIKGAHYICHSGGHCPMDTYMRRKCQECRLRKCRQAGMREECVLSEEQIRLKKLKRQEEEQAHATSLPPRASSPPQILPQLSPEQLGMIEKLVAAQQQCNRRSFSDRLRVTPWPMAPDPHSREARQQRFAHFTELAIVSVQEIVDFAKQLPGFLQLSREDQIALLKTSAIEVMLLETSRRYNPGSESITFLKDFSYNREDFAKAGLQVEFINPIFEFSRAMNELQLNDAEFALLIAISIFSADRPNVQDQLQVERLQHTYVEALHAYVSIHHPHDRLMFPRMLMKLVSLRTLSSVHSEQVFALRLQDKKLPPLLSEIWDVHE
UniProt P55055, whole entry: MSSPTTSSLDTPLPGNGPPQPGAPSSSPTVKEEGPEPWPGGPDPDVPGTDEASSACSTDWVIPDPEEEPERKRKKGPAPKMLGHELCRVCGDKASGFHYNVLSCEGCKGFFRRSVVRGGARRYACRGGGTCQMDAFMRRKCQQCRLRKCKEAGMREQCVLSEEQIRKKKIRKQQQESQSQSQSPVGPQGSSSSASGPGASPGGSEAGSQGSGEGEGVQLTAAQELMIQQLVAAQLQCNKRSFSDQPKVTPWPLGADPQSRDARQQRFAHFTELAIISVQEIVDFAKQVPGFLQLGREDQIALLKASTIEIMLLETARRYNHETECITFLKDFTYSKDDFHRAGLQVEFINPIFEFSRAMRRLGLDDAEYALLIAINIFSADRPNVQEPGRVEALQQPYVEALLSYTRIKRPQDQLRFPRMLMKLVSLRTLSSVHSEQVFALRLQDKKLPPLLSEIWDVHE
UniProt P43354, whole entry: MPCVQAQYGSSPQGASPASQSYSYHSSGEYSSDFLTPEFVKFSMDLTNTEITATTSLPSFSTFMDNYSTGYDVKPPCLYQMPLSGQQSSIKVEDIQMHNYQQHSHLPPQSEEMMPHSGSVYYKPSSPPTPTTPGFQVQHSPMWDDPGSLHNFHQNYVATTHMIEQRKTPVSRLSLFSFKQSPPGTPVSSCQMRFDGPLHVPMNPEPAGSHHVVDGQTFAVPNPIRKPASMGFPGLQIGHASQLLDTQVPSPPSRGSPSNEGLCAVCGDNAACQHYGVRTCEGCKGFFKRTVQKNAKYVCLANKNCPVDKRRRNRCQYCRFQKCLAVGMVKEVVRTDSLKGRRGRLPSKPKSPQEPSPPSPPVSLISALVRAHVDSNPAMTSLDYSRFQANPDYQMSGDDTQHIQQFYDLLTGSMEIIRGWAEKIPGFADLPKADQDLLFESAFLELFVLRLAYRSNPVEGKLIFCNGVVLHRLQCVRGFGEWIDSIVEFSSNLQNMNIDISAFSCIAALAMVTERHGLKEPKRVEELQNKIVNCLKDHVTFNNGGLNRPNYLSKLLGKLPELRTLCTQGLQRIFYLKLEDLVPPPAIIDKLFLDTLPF
UniProt Q07869, whole entry: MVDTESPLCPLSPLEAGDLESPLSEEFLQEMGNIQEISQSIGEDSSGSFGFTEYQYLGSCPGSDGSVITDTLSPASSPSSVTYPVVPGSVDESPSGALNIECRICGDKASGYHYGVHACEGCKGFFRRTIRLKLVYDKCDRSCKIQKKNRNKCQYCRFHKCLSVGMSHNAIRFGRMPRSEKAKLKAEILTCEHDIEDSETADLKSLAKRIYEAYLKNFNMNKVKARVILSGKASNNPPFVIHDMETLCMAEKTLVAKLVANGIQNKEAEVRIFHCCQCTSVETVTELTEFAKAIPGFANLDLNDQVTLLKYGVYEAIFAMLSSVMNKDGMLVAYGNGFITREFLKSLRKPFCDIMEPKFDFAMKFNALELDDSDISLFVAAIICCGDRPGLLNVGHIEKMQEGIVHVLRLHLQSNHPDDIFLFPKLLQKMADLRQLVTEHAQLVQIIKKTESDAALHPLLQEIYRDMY
UniProt P10276, whole entry: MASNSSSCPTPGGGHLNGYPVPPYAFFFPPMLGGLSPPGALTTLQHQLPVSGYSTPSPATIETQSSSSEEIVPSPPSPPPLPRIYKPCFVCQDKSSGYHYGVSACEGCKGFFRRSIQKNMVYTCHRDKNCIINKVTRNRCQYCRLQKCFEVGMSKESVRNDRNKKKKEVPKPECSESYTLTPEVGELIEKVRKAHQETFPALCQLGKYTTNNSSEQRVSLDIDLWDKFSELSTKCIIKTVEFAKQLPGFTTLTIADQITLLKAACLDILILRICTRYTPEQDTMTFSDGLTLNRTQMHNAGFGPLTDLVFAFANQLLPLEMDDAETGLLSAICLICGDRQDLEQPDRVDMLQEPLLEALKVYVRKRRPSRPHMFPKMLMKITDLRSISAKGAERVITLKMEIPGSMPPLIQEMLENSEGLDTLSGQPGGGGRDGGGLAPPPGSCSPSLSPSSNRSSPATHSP
UniProt Q92753, whole entry: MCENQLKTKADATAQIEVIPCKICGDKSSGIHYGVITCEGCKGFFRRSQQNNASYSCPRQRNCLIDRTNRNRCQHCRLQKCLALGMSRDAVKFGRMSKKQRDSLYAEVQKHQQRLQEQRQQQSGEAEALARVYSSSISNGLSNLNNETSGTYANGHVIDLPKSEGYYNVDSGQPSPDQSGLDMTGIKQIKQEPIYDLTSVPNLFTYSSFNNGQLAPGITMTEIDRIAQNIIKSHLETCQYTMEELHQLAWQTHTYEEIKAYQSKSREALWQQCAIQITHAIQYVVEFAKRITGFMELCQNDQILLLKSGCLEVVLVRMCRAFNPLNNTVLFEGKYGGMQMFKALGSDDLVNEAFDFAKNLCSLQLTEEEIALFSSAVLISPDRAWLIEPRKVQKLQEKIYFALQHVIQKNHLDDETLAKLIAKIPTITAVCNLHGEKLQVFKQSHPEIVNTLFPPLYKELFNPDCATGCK
UniProt P51449, whole entry: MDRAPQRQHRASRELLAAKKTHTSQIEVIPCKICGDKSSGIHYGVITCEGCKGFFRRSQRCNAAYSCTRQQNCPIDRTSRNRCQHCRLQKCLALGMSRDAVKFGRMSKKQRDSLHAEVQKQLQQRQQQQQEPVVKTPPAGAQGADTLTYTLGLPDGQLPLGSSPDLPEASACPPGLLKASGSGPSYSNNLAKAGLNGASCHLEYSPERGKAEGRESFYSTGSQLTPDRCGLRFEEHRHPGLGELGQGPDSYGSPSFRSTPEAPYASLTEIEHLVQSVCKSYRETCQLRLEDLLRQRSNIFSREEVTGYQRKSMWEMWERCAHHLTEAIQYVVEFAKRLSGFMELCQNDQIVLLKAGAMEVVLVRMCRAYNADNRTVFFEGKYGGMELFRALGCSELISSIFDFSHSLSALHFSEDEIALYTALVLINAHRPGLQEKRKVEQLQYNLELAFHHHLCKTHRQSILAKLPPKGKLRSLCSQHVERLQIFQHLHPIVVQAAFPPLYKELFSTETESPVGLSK
UniProt P28702, whole entry: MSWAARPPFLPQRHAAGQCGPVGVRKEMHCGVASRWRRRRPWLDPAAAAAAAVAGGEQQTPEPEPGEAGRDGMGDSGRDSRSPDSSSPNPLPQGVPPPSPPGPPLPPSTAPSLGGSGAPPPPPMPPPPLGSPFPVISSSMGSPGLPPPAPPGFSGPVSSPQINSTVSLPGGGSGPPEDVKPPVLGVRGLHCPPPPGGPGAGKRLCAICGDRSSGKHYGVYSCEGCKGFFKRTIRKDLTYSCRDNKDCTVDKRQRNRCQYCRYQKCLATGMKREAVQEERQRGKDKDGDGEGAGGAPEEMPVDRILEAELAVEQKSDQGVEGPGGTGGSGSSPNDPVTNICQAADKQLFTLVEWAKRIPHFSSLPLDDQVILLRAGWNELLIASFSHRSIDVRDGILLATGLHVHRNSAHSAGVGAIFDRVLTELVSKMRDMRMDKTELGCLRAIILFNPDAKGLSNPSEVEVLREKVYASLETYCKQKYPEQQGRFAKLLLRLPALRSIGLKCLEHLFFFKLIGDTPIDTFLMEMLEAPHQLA
UniProt P21728, whole entry: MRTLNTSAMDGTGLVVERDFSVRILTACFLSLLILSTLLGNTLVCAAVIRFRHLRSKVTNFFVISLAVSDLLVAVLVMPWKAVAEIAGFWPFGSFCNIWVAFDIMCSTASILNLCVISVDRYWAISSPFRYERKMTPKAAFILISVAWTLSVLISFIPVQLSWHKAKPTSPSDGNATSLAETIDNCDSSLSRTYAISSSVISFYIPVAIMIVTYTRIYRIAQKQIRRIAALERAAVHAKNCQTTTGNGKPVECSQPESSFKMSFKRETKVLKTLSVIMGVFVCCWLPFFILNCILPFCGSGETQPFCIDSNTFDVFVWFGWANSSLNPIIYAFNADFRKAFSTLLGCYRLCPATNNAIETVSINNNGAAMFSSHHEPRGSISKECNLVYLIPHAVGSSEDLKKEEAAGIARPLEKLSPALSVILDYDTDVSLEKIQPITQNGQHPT

Columns and labels:
[1] = ACEA_ER_80hr: ACEA Biosciences xCELLigence Real-Time Cell Analysis on Estrogen Receptor Agonism for Proliferation (AID 2282667); settings: T47D proliferation, impedance (xCELLigence), 80 h
How it was run: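 Real-time electrical impedance tracked growth of the human breast line T47D, with the 80 h post-dosing value used. Dosing spanned eight 1:4 steps down from a 100 uM final top concentration, run in duplicate.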

[2] = molecular target: Nuclear receptor subfamily 1 group I member 3 (Homo sapiens) (UniProt Q14994); assay: ATG_CAR_TRANS: Attagene TRANS-FACTORIAL HepG2 Assay for human Constitutive Androstane Receptor (CAR) (AID 2282969); settings: HepG2 Attagene TRANS-FACTORIAL CAR reporter;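 note: activators raise reporter mRNA above DMSO so AC50 marks induction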
How it was run: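 Signal is reporter mRNA induction relative to DMSO, measured 24 h after dosing by RT-PCR with fluorescent primer extension and capillary electrophoresis. Human HepG2 liver cells carried transiently transfected chimeric NR-Gal4/GAL4-UAS reporter constructs.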

[3] = ATG_M_19_TRANS: Attagene TRANS-FACTORIAL HepG2 Assay for M19 Transcription Factor (Internal Marker) (AID 2282974); settings: HepG2 Attagene TRANS-FACTORIAL M19 internal marker reporter
How it was run: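 Background-control readout: after 24 h chemical exposure of transfected HepG2 carrying GAL4-driven reporter units, RNA was reverse-transcribed, amplified, fluorescently labeled and sized by capillary electrophoresis; gain-of-signal fit against DMSO.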

[4] = ATG_GAL4_TRANS: Attagene TRANS-FACTORIAL HepG2 Assay for GAL4 (Internal Marker) (AID 2282976); settings: HepG2 Attagene TRANS GAL4 internal marker reporter
How it was run: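 First, HepG2 cells were transfected with reporter units under GAL4-UAS control. Next, they were treated with chemical for 24 h. Finally, RNA was reverse-transcribed, PCR-amplified, FAM-labelled and resolved by capillary electrophoresis, with induction scored against DMSO.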

[5] = molecular target: Glucocorticoid receptor (Homo sapiens) (UniProt P04150); assay: ATG_GR_TRANS: Attagene TRANS-FACTORIAL HepG2 Assay for human Glucocorticoid Receptor (GR) (AID 2282978); settings: HepG2 Attagene TRANS GR reporter, mRNA transcription;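 note: activators score as hits since higher reporter transcript over DMSO is fitted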
[6] = molecular target: Oxysterols receptor LXR-alpha (Homo sapiens) (UniProt Q13133); assay: ATG_LXRa_TRANS: Attagene TRANS-FACTORIAL HepG2 Assay for human Liver X Receptor alpha (LXRa) (AID 2282980); settings: HepG2 Attagene TRANS reporter, LXRa transactivation
How it was run: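 Transfect HepG2 with GAL4-UAS multiplex reporter constructs (TRANS format, chimeric receptor-GAL4); treat 24 h; extract RNA, reverse-transcribe, PCR-amplify, FAM-label, HpaI-digest; resolve fragments by capillary electrophoresis. Upward response vs DMSO.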

[7] = molecular target: Oxysterols receptor LXR-beta (Homo sapiens) (UniProt P55055); assay: ATG_LXRb_TRANS: Attagene TRANS-FACTORIAL HepG2 Assay for human Liver X Receptor beta (LXRb) (AID 2282981); settings: HepG2 Attagene TRANS GAL4-LXRb reporter, mRNA
How it was run: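 After 24 h chemical treatment of transfected HepG2 cells carrying exogenous NR-Gal4 chimeras, reporter mRNA was quantified by fluorescent RT-PCR and capillary electrophoresis; activity taken as increase over DMSO controls.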

[8] = ATG_M_32_TRANS: Attagene TRANS-FACTORIAL HepG2 Assay for M32 Transcription Factor (Internal Marker) (AID 2282984); settings: HepG2 Attagene TRANS M32 internal marker reporter;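 note: transcript level of a background control reporter unit measured by RT-PCR and capillary electrophoresis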
How it was run: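 Internal background reporter in transfected HepG2: after 24 h chemical exposure, RNA reverse-transcribed, reporter cDNA amplified, fluorescently labelled and HpaI-cut, then sized by capillary electrophoresis. Gain of signal fitted against DMSO control.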

[9] = molecular target: Nuclear receptor subfamily 4 group A member 2 (Homo sapiens) (UniProt P43354); assay: ATG_NURR1_TRANS: Attagene TRANS-FACTORIAL HepG2 Assay for human Nuclear Receptor Related Protein 1 (NURR1) (AID 2282985); settings: HepG2 Attagene TRANS reporter, mRNA readout
How it was run: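 Reporter transcript induction, measured by RT-PCR with fluorescent labelling, HpaI digestion and capillary electrophoresis, after 24 hr dosing of human HepG2 cells transiently expressing an exogenous NR-Gal4 fusion with GAL4-UAS-driven reporters; DMSO as baseline.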

[10] = molecular target: human Peroxisome Proliferator-activated Receptor alpha (PPARa), PPARA (gene 5465) (UniProt Q07869); assay: ATG_PPARa_TRANS: Attagene TRANS-FACTORIAL HepG2 Assay for human Peroxisome Proliferator-activated Receptor alpha (PPARa) (AID 2283001)
How it was run: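 Reporter transcripts quantified by RT-PCR plus capillary electrophoresis after 24 h treatment, fitted upward relative to DMSO. Cells: human HepG2 transiently carrying multiple GAL4-UAS reporter units driven by NR-Gal4 chimeras.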

[11] = molecular target: Retinoic acid receptor alpha (Homo sapiens) (UniProt P10276); assay: ATG_RARa_TRANS: Attagene TRANS-FACTORIAL HepG2 Assay for human Retinoic Acid Receptor alpha (RARa) (AID 2283005)
How it was run: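 Reporter transcripts, measured by RT-PCR with fluorescent labeling and capillary electrophoresis after 24 h dosing, reflect activity of an exogenous human RARa–GAL4 fusion in transiently transfected HepG2. Fitted for increase relative to DMSO.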

[12] = molecular target: human RAR-related Orphan Receptor beta (RORb), RORB (gene 6096) (UniProt Q92753); assay: ATG_RORb_TRANS: Attagene TRANS-FACTORIAL HepG2 Assay for human RAR-related Orphan Receptor beta (RORb) (AID 2283010)
How it was run: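 Read-out is reporter mRNA induction, quantified by RT-PCR with fluorescent capillary electrophoresis, 24 h post-dose in transiently transfected HepG2 expressing exogenous NR-Gal4 chimera. Activity fitted upward versus DMSO.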

[13] = molecular target: human RAR-related Orphan Receptor gamma (RORg), RORC (gene 6097) (UniProt P51449); assay: ATG_RORg_TRANS: Attagene TRANS-FACTORIAL HepG2 Assay for human RAR-related Orphan Receptor gamma (RORg) (AID 2283011)
How it was run: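 First, HepG2 liver cells were transfected with GAL4-UAS-driven reporter constructs and the RORg-Gal4 fusion. Next, they were treated with chemical for 24 h. Finally, reporter mRNA was quantified by RT-PCR and capillary electrophoresis, with upward activity fitted against DMSO.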

[14] = molecular target: human Retinoid X Receptor beta (RXRb), RXRB (gene 6257) (UniProt P28702); assay: ATG_RXRb_TRANS: Attagene TRANS-FACTORIAL HepG2 Assay for human Retinoid X Receptor beta (RXRb) (AID 2283013)
How it was run: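 Readout is reporter transcript induction after 24 h dosing. It is measured by RT-PCR of total RNA followed by fluorescent capillary electrophoresis. HepG2 liver cells carry transfected multiple reporter units driven by an exogenous RXRb-Gal4 fusion; activity is relative to DMSO.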

[15] = molecular target: D(1A) dopamine receptor (Homo sapiens) (UniProt P21728); assay: NVS_GPCR_hDRD1: NovaScreen (NVS) G Protein-Coupled Receptor Assay for human Dopamine Receptor D1 (DRD1) (AID 2283269)
How it was run: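 Extracted HEK293 DRD1 is incubated 1 h with compound and a tritiated or iodinated radioligand, then filtered and counted. Screening runs 25 uM in duplicate with on-plate positive and negative controls.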

Measured: AC50

N#CBr
inconclusive: [1] 0.528 µM | [2] | [3] 15.2 µM | [4] | [5] | [6] | [7] | [8] | [9] | [10] | [11] | [12] | [13] | [14] | [15] 5.51 µM
